Results deposited as PubChem BioAssay AID743454 (Peter MacCallum Cancer Centre, 2014).
The deposit covers about 18,000 reagents; this is an unselected part. In the full data, 450 (2.5%) were called active. 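Single biological run; no consistent viability z cut-off exists, so the class columns, not z-scores, define the calls.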

- Purpose: 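Genes whose loss kills vorinostat-resistant colon cancer cells under vorinostat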 (primary screen)
- Cell system: human HCT116-VR colon cancer cells, selected for vorinostat resistance
- Reagent: siRNA pool against human genes, 40 nM siRNA pool
- Time to read-out: vorinostat for 24 h, read-out about 72 h after transfection
- Conditions: vorinostat at 2.5 µM final
- Measured: 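Two measures, CellTiter-Fluor viability and luminescent caspase 3/7 activity, each as fold change against same-plate mock wells, mean of duplicates, then screen-wide robust z-score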
- Direction: viability robust z-score: higher = more viable cells than screen typical; caspase robust z-score: higher = more caspase 3/7 activity than screen typical
- Hit rule: 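a knock-down is a hit when classed RV1 or RV2 for lowered viability, or CA1 or CA2 for caspase activation; those lethal without drug were dropped; hits were retested singly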

{"target": "TWF1 (twinfilin actin binding protein 1)", "viability hit class": "no change", "caspase hit class": "no change", "viability robust z-score": 0.88, "caspase robust z-score": 0.22, "activity call": "inactive"}
{"target": "STAT6 (signal transducer and activator of transcription 6)", "viability hit class": "no change", "caspase hit class": "no change", "viability robust z-score": -1.97, "caspase robust z-score": -0.52, "activity call": "inactive"}
{"target": "RPL30 (ribosomal protein L30)", "viability hit class": "no change", "caspase hit class": "no change", "viability robust z-score": -4.81, "caspase robust z-score": -1.22, "activity call": "inactive"}
{"target": "MED16 (mediator complex subunit 16)", "viability hit class": "no change", "caspase hit class": "no change", "viability robust z-score": -0.88, "caspase robust z-score": -0.11, "activity call": "inactive"}
{"target": "CA3 (carbonic anhydrase 3)", "viability hit class": "no change", "caspase hit class": "no change", "viability robust z-score": -0.54, "caspase robust z-score": 2.36, "activity call": "inactive"}
{"target": "OR9G4 (olfactory receptor family 9 subfamily G member 4)", "viability hit class": "no change", "caspase hit class": "no change", "viability robust z-score": 1.14, "caspase robust z-score": -0.46, "activity call": "inactive"}
{"target": "TIMM8B (translocase of inner mitochondrial membrane 8 homolog B)", "viability hit class": "no change", "caspase hit class": "no change", "viability robust z-score": 0.74, "caspase robust z-score": 0.96, "activity call": "inactive"}
{"target": "UGCG (UDP-glucose ceramide glucosyltransferase)", "viability hit class": "no change", "caspase hit class": "no change", "viability robust z-score": 0.16, "caspase robust z-score": -0.8, "activity call": "inactive"}
{"target": "RNF169 (ring finger protein 169)", "viability hit class": "no change", "caspase hit class": "no change", "viability robust z-score": 0.92, "caspase robust z-score": 0.03, "activity call": "inactive"}
{"target": "GPLD1 (glycosylphosphatidylinositol specific phospholipase D1)", "viability hit class": "no change", "caspase hit class": "no change", "viability robust z-score": 0.19, "caspase robust z-score": -0.01, "activity call": "inactive"}
{"target": "CCDC121 (coiled-coil domain containing 121)", "viability hit class": "no change", "caspase hit class": "no change", "viability robust z-score": -1.25, "caspase robust z-score": 3.38, "activity call": "inactive"}

Only “viability hit class” (4 entries from above):
OR9G4 (olfactory receptor family 9 subfamily G member 4) = no change
TIMM8B (translocase of inner mitochondrial membrane 8 homolog B) = no change
UGCG (UDP-glucose ceramide glucosyltransferase) = no change
RNF169 (ring finger protein 169) = no change

The list goes on:
{"target": "CDC37L1 (cell division cycle 37 like 1, HSP90 cochaperone)", "viability hit class": "no change", "caspase hit class": "no change", "viability robust z-score": 0.17, "caspase robust z-score": 0.05, "activity call": "inactive"}
{"target": "KRTAP10-2 (keratin associated protein 10-2)", "viability hit class": "no change", "caspase hit class": "no change", "viability robust z-score": -1.23, "caspase robust z-score": 3.46, "activity call": "inactive"}
{"target": "LRRC23 (leucine rich repeat containing 23)", "viability hit class": "no change", "caspase hit class": "no change", "viability robust z-score": -0.94, "caspase robust z-score": -0.54, "activity call": "inactive"}
{"target": "KLHL42 (kelch like family member 42)", "viability hit class": "no change", "caspase hit class": "no change", "viability robust z-score": 0, "caspase robust z-score": -0.55, "activity call": "inactive"}
{"target": "AMELY (amelogenin Y-linked)", "viability hit class": "no change", "caspase hit class": "no change", "viability robust z-score": 1.3, "caspase robust z-score": -0.28, "activity call": "inactive"}
{"target": "UPRT (uracil phosphoribosyltransferase homolog)", "viability hit class": "no change", "caspase hit class": "no change", "viability robust z-score": 0.11, "caspase robust z-score": -0.36, "activity call": "inactive"}
{"target": "IL18R1 (interleukin 18 receptor 1)", "viability hit class": "no change", "caspase hit class": "no change", "viability robust z-score": -0.46, "caspase robust z-score": -0.31, "activity call": "inactive"}
{"target": "GAS2L3 (growth arrest specific 2 like 3)", "viability hit class": "no change", "caspase hit class": "no change", "viability robust z-score": 2.11, "caspase robust z-score": 0.3, "activity call": "inactive"}
{"target": "RGS1 (regulator of G protein signaling 1)", "viability hit class": "no change", "caspase hit class": "no change", "viability robust z-score": -1.38, "caspase robust z-score": 1.99, "activity call": "inactive"}
{"target": "MRPL22 (mitochondrial ribosomal protein L22)", "viability hit class": "no change", "caspase hit class": "no change", "viability robust z-score": -0.84, "caspase robust z-score": 1.08, "activity call": "inactive"}
{"target": "ZNF337 (zinc finger protein 337)", "viability hit class": "no change", "caspase hit class": "no change", "viability robust z-score": -0.39, "caspase robust z-score": -0.26, "activity call": "inactive"}
{"target": "OR4C15 (olfactory receptor family 4 subfamily C member 15)", "viability hit class": "no change", "caspase hit class": "no change", "viability robust z-score": -1.49, "caspase robust z-score": 3.86, "activity call": "inactive"}
{"target": "SNCA (synuclein alpha)", "viability hit class": "no change", "caspase hit class": "no change", "viability robust z-score": -0.38, "caspase robust z-score": 0.35, "activity call": "inactive"}
{"target": "SLCO4A1", "viability hit class": "no change", "caspase hit class": "no change", "viability robust z-score": -1.25, "caspase robust z-score": -0.02, "activity call": "inactive"}
{"target": "RALGAPA2 (Ral GTPase activating protein catalytic subunit alpha 2)", "viability hit class": "no change", "caspase hit class": "no change", "viability robust z-score": 0.22, "caspase robust z-score": -0.52, "activity call": "inactive"}
{"target": "ARHGEF10 (Rho guanine nucleotide exchange factor 10)", "viability hit class": "no change", "caspase hit class": "no change", "viability robust z-score": 1.28, "caspase robust z-score": 0.04, "activity call": "inactive"}
